The numbers were not newly measured in patent publication US7074426B2, “Methods and drug delivery systems for the treatment of orofacial diseases” (priority 2002, dated 2006), which cites them from elsewhere.

The subject of the data set is osteoclast surfaces. As to conditions: mice, bone, radioactive [3H]alendronate.

Regarding `NCCCC(O)(P(=O)(O)O)P(=O)(O)O` [alendronate], the “uptake on osteoclast surfaces versus osteoblast surfaces” value is “about 10 fold”.
